Test [1] addresses T1, GPAT4 (construct of the control co-immunoprecipitation, Supplementary Fig. 5b) (UniProt Q86UL3).
T1 sequence: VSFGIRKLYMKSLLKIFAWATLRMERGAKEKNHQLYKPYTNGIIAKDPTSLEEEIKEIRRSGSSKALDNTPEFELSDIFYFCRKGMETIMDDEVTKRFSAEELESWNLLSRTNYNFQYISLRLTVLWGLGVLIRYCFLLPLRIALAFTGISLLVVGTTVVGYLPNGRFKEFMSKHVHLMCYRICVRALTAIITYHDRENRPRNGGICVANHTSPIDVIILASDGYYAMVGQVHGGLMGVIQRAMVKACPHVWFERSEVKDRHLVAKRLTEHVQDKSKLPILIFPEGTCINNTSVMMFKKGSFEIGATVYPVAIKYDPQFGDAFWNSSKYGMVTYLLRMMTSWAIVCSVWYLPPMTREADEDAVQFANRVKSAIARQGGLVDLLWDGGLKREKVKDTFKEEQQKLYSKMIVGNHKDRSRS
In words: co-IP; control co-IP 'under the same conditions' as the AGPAT2-CDS1/2 co-IP (Supplementary Fig. 5b); tags and bait not shown.

By UniProt entry, the sequences of proteins in these tests, tags left out.
UniProt Q96G97: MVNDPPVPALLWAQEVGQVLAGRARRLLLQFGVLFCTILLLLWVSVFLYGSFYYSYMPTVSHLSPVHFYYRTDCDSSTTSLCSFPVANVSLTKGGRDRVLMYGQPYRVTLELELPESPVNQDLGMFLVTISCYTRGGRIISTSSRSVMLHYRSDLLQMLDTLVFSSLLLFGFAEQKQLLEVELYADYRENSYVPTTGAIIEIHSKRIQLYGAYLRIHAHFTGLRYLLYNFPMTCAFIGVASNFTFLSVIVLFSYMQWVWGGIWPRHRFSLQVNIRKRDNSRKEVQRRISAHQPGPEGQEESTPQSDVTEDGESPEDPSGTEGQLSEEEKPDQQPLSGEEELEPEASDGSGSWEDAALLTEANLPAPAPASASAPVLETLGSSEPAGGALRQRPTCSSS

Test [2] addresses T2, HA-CDS2 (human CDP-diacylglycerol synthase 2, HA-tagged) (human) (UniProt O95674).
T2 sequence: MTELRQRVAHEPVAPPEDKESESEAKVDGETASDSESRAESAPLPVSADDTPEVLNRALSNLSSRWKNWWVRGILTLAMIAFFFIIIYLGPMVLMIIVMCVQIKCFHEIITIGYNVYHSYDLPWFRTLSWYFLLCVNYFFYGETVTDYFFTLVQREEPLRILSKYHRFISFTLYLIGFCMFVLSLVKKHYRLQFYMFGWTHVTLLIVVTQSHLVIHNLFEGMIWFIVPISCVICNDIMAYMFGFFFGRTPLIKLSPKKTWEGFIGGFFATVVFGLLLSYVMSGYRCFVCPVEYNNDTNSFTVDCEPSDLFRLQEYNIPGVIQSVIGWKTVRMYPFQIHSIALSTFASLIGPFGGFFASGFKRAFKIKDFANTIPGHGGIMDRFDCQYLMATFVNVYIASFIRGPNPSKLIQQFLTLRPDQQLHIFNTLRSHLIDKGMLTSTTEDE
Nature of the test: co-IP; transfected HEK293E lysates (1 mg) with HA-agarose beads, 4 °C, 16 h; 25 mM HEPES pH 7.4, 150 mM NaCl, 1 mM EDTA, 10% glycerol, 1% DDM; washed with 25 mM HEPES pH 7.4, 150 mM NaCl, 0.1% NP-40; Western blot.

Test [3] deals with T3, HA-CDS1 (human CDP-diacylglycerol synthase 1, HA-tagged) (human) (UniProt Q92903).
T3 sequence: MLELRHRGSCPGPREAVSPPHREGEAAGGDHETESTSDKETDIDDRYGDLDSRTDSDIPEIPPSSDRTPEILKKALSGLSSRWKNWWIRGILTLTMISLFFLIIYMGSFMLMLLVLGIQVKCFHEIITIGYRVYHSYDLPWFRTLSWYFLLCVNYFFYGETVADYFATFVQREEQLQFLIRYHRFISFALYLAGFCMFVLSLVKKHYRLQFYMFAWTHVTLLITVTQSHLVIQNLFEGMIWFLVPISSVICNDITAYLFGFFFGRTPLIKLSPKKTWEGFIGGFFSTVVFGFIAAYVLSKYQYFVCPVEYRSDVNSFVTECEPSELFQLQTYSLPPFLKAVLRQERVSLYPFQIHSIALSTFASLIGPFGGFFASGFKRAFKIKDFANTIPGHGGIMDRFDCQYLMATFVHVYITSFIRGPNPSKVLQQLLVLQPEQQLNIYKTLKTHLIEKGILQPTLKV
The test is described as above.

Test [4] has as its target T4, Flag-CDS1 (full-length human CDS1 with an N-terminal Flag tag) (human) (UniProt Q92903).
T4 sequence: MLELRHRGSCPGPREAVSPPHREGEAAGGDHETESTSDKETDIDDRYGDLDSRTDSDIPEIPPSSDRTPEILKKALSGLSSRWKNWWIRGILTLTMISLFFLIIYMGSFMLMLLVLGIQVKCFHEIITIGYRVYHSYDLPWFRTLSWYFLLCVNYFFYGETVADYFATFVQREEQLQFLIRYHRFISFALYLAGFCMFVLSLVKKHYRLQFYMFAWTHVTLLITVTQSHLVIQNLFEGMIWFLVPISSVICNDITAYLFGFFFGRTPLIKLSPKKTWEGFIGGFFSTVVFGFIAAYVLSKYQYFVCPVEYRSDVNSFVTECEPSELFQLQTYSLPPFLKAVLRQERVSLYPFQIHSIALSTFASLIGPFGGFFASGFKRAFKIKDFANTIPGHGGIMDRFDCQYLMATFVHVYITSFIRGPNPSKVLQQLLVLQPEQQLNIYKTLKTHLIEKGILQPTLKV
Nature of the test: two-step affinity co-purification (anti-Flag, then Strep-Tactin); Flag-CDS1 or Flag-CDS2 co-expressed with AGPAT2-Strep in HEK293F; membranes solubilised with 1% GDN; anti-Flag G1 resin, Flag peptide elution, then Strep-Tactin resin, biotin elution; 25 mM Tris pH 8.0, 150 mM NaCl, 0.02% GDN; SDS-PAGE, Coomassie blue.

Test [5] addresses T5, Flag-CDS2 (full-length human CDS2 with an N-terminal Flag tag) (human) (UniProt O95674).
T5 sequence: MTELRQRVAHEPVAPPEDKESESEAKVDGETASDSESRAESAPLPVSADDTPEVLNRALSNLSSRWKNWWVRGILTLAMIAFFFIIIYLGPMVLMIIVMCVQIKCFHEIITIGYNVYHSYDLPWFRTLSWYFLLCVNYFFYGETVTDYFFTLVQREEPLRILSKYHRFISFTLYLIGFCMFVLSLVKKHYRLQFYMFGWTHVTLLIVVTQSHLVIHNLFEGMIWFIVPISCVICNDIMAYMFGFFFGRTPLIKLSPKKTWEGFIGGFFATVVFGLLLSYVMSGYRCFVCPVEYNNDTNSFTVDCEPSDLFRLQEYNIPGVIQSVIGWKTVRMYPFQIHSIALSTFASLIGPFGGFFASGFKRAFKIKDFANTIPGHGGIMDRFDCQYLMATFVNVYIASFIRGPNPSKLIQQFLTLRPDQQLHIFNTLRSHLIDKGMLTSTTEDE
The description is as above.

Test [6] has as its target T6, CDS2-mScarlet (endogenous CDS2 tagged at its genomic locus) (human (endogenous in HeLa)) (UniProt O95674).
T6 sequence: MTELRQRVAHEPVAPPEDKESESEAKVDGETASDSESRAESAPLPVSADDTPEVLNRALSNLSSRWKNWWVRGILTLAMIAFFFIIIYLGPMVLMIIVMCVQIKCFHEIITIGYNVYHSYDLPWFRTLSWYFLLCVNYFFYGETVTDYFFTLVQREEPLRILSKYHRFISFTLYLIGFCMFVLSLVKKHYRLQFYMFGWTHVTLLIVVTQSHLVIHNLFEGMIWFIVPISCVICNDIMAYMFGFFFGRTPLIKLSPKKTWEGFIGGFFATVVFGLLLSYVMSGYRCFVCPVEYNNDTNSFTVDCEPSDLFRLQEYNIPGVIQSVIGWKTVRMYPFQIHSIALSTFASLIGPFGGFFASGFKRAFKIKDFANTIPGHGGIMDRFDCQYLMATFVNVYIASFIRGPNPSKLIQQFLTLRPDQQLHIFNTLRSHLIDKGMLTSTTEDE
Nature of the test: co-IP; HeLa cells with AGPAT2-sfGFP and CDS2-mScarlet knocked in at their genomic loci (DKI), single knock-in (SKI) as control; which of the two was precipitated is not told.

Results are given in words; binding and its absence hold for the method and conditions named. For some assays here: In cells and extracts the contact can be indirect. Some entries that bind do so weakly or less than the wild type. For some assays here: Tags and fused reporters may be left off the sequences shown.

Consider “seipin (construct of the control co-immunoprecipitation, Supplementary Fig. 5b) (from UniProt Q96G97 1-398)”, for which the binding entry in test [1] is reported as “binds”.

B1: AGPAT2-GFP (human 1-acylglycerol-3-phosphate O-acyltransferase 2, GFP-tagged) (enzyme, UniProt O15120 24-278)
chain: AEFYAKVALYCALCFTVSAVASLVCLLRHGGRTVENMSIIGWFVRSFKYFYGLRFEVRDPRRLQEARPCVIVSNHQSILDMMGLMEVLPERCVQIAKRELLFLGPVGLIMYLGGVFFINRQRSSTAMTVMADLGERMVRENLKVWIYPEGTRNDNGDLLPFKKGAFYLAVQAQVPIVPVVYSSFSSFYNTKKKFFTSGTVTVQVLEAIPTSGLTAADVPALVDTCHRAMRTTFLHISKTPQENGATAGSGVQPAQ
For B1, the binding result in test [2] and in test [3] was “binds” each time.

B2: AGPAT2-Strep (full-length human AGPAT2 with a C-terminal Strep tag) (enzyme, UniProt O15120 24-278)
chain: AEFYAKVALYCALCFTVSAVASLVCLLRHGGRTVENMSIIGWFVRSFKYFYGLRFEVRDPRRLQEARPCVIVSNHQSILDMMGLMEVLPERCVQIAKRELLFLGPVGLIMYLGGVFFINRQRSSTAMTVMADLGERMVRENLKVWIYPEGTRNDNGDLLPFKKGAFYLAVQAQVPIVPVVYSSFSSFYNTKKKFFTSGTVTVQVLEAIPTSGLTAADVPALVDTCHRAMRTTFLHISKTPQENGATAGSGVQPAQ
Take B2: the binding entry in test [4] and in test [5] was “binds” throughout.

B3: AGPAT2-mCherry (human AGPAT2, mCherry-tagged) (enzyme, UniProt O15120 24-278)
chain: AEFYAKVALYCALCFTVSAVASLVCLLRHGGRTVENMSIIGWFVRSFKYFYGLRFEVRDPRRLQEARPCVIVSNHQSILDMMGLMEVLPERCVQIAKRELLFLGPVGLIMYLGGVFFINRQRSSTAMTVMADLGERMVRENLKVWIYPEGTRNDNGDLLPFKKGAFYLAVQAQVPIVPVVYSSFSSFYNTKKKFFTSGTVTVQVLEAIPTSGLTAADVPALVDTCHRAMRTTFLHISKTPQENGATAGSGVQPAQ
Regarding B3, the binding entry in test [2] and in test [3] was “binds” throughout.

B4: AGPAT2-sfGFP, longer isoform (endogenous AGPAT2 tagged at its genomic locus) (enzyme, UniProt O15120 24-278)
chain: AEFYAKVALYCALCFTVSAVASLVCLLRHGGRTVENMSIIGWFVRSFKYFYGLRFEVRDPRRLQEARPCVIVSNHQSILDMMGLMEVLPERCVQIAKRELLFLGPVGLIMYLGGVFFINRQRSSTAMTVMADLGERMVRENLKVWIYPEGTRNDNGDLLPFKKGAFYLAVQAQVPIVPVVYSSFSSFYNTKKKFFTSGTVTVQVLEAIPTSGLTAADVPALVDTCHRAMRTTFLHISKTPQENGATAGSGVQPAQ
On to B4, for which the binding entry in test [6] is “binds”.
